The text below walks through data of PMC9882608, “Structure of an endogenous mycobacterial MCE lipid transporter” (Research Square, 2023).

The chains behind the UniProt entries cited, without tags or fusion partners. Where a name states a change or a piece, a line headed by the entry shows the natural chain unless it says otherwise.
UniProt A0QNR7: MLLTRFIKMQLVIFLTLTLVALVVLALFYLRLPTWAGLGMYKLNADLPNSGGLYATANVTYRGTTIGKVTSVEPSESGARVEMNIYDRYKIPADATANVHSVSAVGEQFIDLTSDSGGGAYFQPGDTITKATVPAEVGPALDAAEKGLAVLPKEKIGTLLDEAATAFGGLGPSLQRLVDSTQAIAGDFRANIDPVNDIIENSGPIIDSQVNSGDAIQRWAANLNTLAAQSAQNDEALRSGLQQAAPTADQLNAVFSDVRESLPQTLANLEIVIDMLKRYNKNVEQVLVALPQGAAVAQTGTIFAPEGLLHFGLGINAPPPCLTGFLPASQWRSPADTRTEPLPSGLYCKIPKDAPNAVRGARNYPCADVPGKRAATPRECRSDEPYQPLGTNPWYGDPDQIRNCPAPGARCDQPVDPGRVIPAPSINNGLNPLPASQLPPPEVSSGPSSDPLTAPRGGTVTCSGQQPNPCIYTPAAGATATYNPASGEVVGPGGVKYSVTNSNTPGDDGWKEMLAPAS
UniProt A0QNR4: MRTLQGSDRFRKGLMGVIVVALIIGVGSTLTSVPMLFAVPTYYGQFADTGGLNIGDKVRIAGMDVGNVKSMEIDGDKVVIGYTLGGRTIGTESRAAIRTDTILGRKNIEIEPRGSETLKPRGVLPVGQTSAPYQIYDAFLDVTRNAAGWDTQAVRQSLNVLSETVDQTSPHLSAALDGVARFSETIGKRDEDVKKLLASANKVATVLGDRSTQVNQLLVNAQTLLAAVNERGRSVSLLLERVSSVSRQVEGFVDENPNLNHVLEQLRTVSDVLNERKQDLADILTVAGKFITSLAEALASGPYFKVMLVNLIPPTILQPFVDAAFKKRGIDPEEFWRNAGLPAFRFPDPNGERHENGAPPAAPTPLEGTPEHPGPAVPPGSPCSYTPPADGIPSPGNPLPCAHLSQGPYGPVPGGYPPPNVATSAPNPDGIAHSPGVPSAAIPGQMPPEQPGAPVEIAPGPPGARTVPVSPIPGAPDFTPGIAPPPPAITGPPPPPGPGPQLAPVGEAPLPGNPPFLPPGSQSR
UniProt A0QNR2: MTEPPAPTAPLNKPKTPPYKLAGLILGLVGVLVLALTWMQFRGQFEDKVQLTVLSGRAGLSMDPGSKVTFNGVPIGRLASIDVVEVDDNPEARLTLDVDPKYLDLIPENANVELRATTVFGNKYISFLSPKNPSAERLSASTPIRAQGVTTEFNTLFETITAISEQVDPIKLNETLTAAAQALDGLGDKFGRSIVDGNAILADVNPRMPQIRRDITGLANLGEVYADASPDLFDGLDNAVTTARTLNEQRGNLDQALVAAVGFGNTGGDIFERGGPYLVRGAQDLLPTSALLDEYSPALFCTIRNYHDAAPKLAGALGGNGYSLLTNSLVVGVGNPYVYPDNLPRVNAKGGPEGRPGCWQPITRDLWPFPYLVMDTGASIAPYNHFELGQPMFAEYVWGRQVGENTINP
UniProt A0QNR5: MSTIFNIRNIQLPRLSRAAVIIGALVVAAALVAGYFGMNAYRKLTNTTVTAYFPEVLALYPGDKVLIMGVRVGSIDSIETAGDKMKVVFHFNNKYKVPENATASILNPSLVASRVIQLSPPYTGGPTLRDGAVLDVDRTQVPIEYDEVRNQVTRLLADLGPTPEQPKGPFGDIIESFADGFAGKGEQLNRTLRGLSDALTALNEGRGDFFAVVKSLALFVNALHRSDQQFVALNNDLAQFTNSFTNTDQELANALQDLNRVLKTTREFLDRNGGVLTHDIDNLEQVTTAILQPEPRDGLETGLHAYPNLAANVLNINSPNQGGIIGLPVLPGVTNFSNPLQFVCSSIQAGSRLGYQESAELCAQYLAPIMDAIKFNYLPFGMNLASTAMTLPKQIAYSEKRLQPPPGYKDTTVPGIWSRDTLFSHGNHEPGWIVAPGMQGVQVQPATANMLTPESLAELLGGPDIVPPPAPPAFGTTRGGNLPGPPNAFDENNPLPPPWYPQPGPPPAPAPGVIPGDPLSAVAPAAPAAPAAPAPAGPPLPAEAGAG
UniProt A0QNR1: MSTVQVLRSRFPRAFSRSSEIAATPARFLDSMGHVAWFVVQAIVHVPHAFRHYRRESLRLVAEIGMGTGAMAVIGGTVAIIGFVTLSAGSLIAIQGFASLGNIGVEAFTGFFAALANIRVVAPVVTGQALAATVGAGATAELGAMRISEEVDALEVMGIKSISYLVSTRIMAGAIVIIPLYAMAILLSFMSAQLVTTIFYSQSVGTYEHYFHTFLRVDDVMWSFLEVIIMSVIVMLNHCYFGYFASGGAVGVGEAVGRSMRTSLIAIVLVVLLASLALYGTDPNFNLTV
UniProt A0QNR3: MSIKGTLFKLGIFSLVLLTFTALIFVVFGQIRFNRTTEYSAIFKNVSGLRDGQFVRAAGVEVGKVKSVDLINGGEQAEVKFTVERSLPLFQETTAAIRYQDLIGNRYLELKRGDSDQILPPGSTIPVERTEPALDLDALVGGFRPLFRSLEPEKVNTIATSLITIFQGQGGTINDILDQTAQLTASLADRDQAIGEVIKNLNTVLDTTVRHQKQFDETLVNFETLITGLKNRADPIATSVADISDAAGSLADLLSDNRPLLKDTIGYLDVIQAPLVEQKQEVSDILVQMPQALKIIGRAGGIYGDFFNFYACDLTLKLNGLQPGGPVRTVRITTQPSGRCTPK
UniProt A0QWR2: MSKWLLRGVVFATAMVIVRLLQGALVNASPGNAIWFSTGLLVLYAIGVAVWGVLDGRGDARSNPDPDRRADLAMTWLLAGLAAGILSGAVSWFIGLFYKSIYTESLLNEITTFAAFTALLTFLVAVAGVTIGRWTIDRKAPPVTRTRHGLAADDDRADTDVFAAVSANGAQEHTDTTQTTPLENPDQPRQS
UniProt A0QNR0: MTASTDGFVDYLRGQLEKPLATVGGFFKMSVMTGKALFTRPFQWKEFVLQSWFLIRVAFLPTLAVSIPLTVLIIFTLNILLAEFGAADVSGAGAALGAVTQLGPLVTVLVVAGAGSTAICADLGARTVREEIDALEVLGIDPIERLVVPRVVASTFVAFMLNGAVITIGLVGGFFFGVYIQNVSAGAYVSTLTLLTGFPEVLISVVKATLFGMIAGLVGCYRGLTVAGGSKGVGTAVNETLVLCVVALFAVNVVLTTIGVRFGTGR

Test in all cases: cryo-EM structure
Assay [1] addresses Mce1F (Mycobacterium smegmatis (endogenous in mc2155)) (UniProt A0QNR7).
The target in assay [2] is Mce1C (Mycobacterium smegmatis (endogenous in mc2155)) (UniProt A0QNR4).
The target in assay [3] is Mce1A (Mycobacterium smegmatis (endogenous in mc2155)) (UniProt A0QNR2).
Assay [4] addresses Mce1D (Mycobacterium smegmatis (endogenous in mc2155)) (UniProt A0QNR5).
For assay [5], the target named is YrbE1B (Mycobacterium smegmatis (endogenous in mc2155)) (UniProt A0QNR1).

These are yes or no findings as the source states them, for the method shown. Binding can be weak; no strength is given.

As to Mce1D (from UniProt A0QNR5), the binding entry in assay [1] was “binds”.
The same measure, in the same setting: the result for YrbE1B (from UniProt A0QNR1) reads “binds”.
For the substance Mce1B (from UniProt A0QNR3), the binding result in assay [2] was “binds”.
Regarding Mce1F (from UniProt A0QNR7), the binding result in assay [3] is “binds”.
As for Mce1C (from UniProt A0QNR4), in assay [4], the binding entry is reported as “binds”.
LucB (MSMEG_3032) (from UniProt A0QWR2): in assay [2], the binding entry was “binds”.
YrbE1A (from UniProt A0QNR0): the binding result in assay [5] is reported as “binds”.
